This is an account of results in article PMC8702954.

Construct, isoform or probe ends are uncertain for at least one entry.

In data set [1] the test system is GST-ONAC096 (Oryza sativa (rice)). Briefly: EMSA. Conditions: EMSA: 10 uL, 1x LightShift kit binding buffer (composition, pH and salt not given), 2 ug protein, 28 C 20 min, 6% native PAGE; recombinant protein; protein details: N-terminal GST (pGEX-4T-3); label: biotin. A general note: In EMSA bound probe runs differently from free probe, usually more slowly.
For data set [2] the test system is unchanged. Description: competition with a labelled probe. The conditions noted are these: EMSA: 10 uL, 1x LightShift kit binding buffer (composition, pH and salt not given), 2 ug protein, 28 C 20 min, 6% native PAGE, recombinant protein, protein details: N-terminal GST (pGEX-4T-3).

With “GTAAGGTGGATCCACGGGTCAGGCATGG (double strand) [wP4 (OsRap2.6 promoter)]”, the binding result in data set [1] is “binds”. Still for that read-out and setting: in the case of “AAAACACGTATACAGCCAAAATACGTTACACGGTGG (double strand) [wP2 (OsRap2.6 promoter)]” it was “binds”. Regarding “GTAAGGTGGATCCACGGGTCAGGCATGG (double strand) [wP4 unlabeled competitor]”, the binding result in data set [2] (100x excess unlabeled against biotin-wP4 (EMSA)) is given as “binds”. For the sequence “AAAACACGTATACAGCCAAAATACGTTACACGGTGG (double strand) [wP2 unlabeled competitor]”, the binding result in data set [2] (100x excess unlabeled against biotin-wP2 (EMSA)) is “binds”.
